Test [1] deals with T1, BMP10 (human) (UniProt O95393).
T1 sequence: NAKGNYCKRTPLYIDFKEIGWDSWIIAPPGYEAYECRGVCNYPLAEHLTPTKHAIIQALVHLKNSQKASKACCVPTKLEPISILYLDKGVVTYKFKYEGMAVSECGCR
As to the kind of experiment: SPR (Biacore); ligand amine-coupled to CM5 chip. (In SPR one partner is held on a chip, and binding of the other changes the refractive index at the surface.)

Chains of the proteins cited; added tags and fusions are not shown. Residues count along the entry.
UniProt P22004, residues 382-513: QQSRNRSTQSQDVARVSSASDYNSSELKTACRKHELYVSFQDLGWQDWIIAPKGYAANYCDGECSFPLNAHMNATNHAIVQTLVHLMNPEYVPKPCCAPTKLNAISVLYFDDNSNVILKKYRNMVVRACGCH

Test [2] has as its target T2, BMP9 (human) (UniProt Q9UK05).
T2 sequence (looked up): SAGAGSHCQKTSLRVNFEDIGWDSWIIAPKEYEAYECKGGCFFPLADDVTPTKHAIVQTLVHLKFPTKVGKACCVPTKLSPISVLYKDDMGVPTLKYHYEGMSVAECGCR
The test is described as follows: SPR (Biacore); ligand amine-coupled to CM5 chip.

Test [3] has as its target T1, BMP10 (human). As to the kind of experiment: SPR kinetics.
Test [4] has as its target T1, BMP10 (human). The test is described as follows: SPR ligand panel.
The target in test [5] is T2, BMP9 (human). The test is described as follows: SPR ligand panel.
Test [6] concerns the target T1, BMP10 (human). As to the kind of experiment: SPR ligand panel; ligand at 5 nM; ++++ means KD < 1 nM.
Test [7] has as its target T2, BMP9 (human). The description is as above.
The target in test [8] is T1, BMP10 (human). As to the kind of experiment: SPR screen; captured hENG-hFc, soluble ligand at 100 nM; ++++ means KD < 1 nM.
For test [9], the target named is T2, BMP9 (human). Described as above.
For the next test, the target named is BMP6 (human) (UniProt P22004). The test is described as follows: SPR (Biacore); BMP10pro-Fc captured via anti-Fc antibody, ligand injected.

No constants are given. Whether binding was seen depends on the method and setting. Some entries that bind do so weakly or less than the wild type.

B1: ALK1-mFc (Fc fusion, mouse, UniProt Q61288 23-119, looked up, not shown: small tags and cut ends; a dimerising Fc or GST)
chain: DLAKPSKLVNCTCESPHCKRPFCQGSWCTVVLVREQGRHPQVYRGCGSLNQELCLGRPTEFLNHHCCYRSFCNHNVSLMLEATQTPSEEPEVDAHLP
As for B1, the binding result in the test with BMP10 (human) [1] and in the test with BMP9 (human) [2] was “binds” each time.

B2: hENG(26-437)-hFc (Fc fusion, not shown: small tags and cut ends; a dimerising Fc or GST)
chain: ETVHCDLQPVGPERGEVTYTTSQVSKGCVAQAPNAILEVHVLFLEFPTGPSQLELTLQASKQNGTWPREVLLVLSVNSSVFLHLQALGIPLHLAYNSSLVTFQEPPGVNTTELPSFPKTQILEWAAERGPITSAAELNDPQSILLRLGQAQGSLSFCMLEASQDMGRTLEWRPRTPALVRGCHLEGVAGHKEAHILRVLPGHSAGPRTVTVKVELSCAPGDLDAVLILQGPPYVSWLIDANHNMQIWTTGEYSFKIFPEKNIRGFKLPDTPQGLLGEARMLNASIVASFVELPLASIVSLHASSCGGRLQTSPAPIQTTPPKDTCSPELLMSLIQTKCADDAMTLVLKKELVAHLKCTITGLTFWDPSCEAEDRGDKFVLRSAYSSCGMQVSASMISNEAVVNILSSSSPQR
Regarding B2, the binding result in the test with BMP10 (human) [3], in the test with BMP10 (human) [4], with BMP9 (human) [5], with BMP10 (human) [6], with BMP9 (human) [7] and with BMP10 (human) [8] was “binds” in each case. Further, the binding result in the test with BMP9 (human) [9] is listed as “binds”.

B3: BMP10pro(22-315)-mFc (Fc fusion, not shown: a dimerising Fc or GST)
chain: SPIMNLEQSPLEEDMSLFGDVFSEQDGVDFNTLLQSMKDEFLKTLNLSDIPTQDSAKVDPPEYMLELYNKFATDRTSMPSANIIRSFKNEDLFSQPVSFNGLRKYPLLFNVSIPHHEEVIMAELRLYTLVQRDRMIYDGVDRKITIFEVLESKGDNEGERNMLVLVSGEIYGTNSEWETFDVTDAIRRWQKSGSSTHQLEVHIESKHDEAEDASSGRLEIDTSAQNKHNPLLIVFSDDQSSDKERKEELNEMISHEQLPELDNLGLDSFSSGPGEEALLQMRSNIIYDSTARIR
Consider B3, for which the binding entry with BMP6 (human) is listed as “binds”.

B4: BMP10pro(22-312)-mFc (Fc fusion, not shown: a dimerising Fc or GST)
chain: SPIMNLEQSPLEEDMSLFGDVFSEQDGVDFNTLLQSMKDEFLKTLNLSDIPTQDSAKVDPPEYMLELYNKFATDRTSMPSANIIRSFKNEDLFSQPVSFNGLRKYPLLFNVSIPHHEEVIMAELRLYTLVQRDRMIYDGVDRKITIFEVLESKGDNEGERNMLVLVSGEIYGTNSEWETFDVTDAIRRWQKSGSSTHQLEVHIESKHDEAEDASSGRLEIDTSAQNKHNPLLIVFSDDQSSDKERKEELNEMISHEQLPELDNLGLDSFSSGPGEEALLQMRSNIIYDSTA
Consider B4, for which the binding result with BMP6 (human) is “binds”.

B5: hENG(26-581)-hFc (Fc fusion, not shown: small tags and cut ends; a dimerising Fc or GST)
chain: ETVHCDLQPVGPERGEVTYTTSQVSKGCVAQAPNAILEVHVLFLEFPTGPSQLELTLQASKQNGTWPREVLLVLSVNSSVFLHLQALGIPLHLAYNSSLVTFQEPPGVNTTELPSFPKTQILEWAAERGPITSAAELNDPQSILLRLGQAQGSLSFCMLEASQDMGRTLEWRPRTPALVRGCHLEGVAGHKEAHILRVLPGHSAGPRTVTVKVELSCAPGDLDAVLILQGPPYVSWLIDANHNMQIWTTGEYSFKIFPEKNIRGFKLPDTPQGLLGEARMLNASIVASFVELPLASIVSLHASSCGGRLQTSPAPIQTTPPKDTCSPELLMSLIQTKCADDAMTLVLKKELVAHLKCTITGLTFWDPSCEAEDRGDKFVLRSAYSSCGMQVSASMISNEAVVNILSSSSPQRKKVHCLNMDSLSFQLGLYLSPHFLQASNTIEPGQQSFVQVRVSPSVSEFLLQLDSCHLDLGPEGGTVELIQGRAAKGNCVSLLSPSPEGDPRFSFLLHFYTVPIPKTGTLSCTVALRPKTGSQDQEVHRTVFMRLNIISPDLSG
Consider B5, for which the binding entry with BMP10 (human) [8] and in the test with BMP9 (human) [9] was “binds” each time.

The record behind these values is patent US20230285506A1.
